Assay results as given in US6211145A, “Bicyclic depsipeptides” (Nisshin Flour Milling Co., Ltd., priority 1997, dated 2001).
Part of at least one peptide drawing is inferred or uncertain, most often the ends. Numbered stars: 1 amine (or outer) side, 2 acyl side, 3 side chain; on linkers, the order of the positions; unused ones are H or OH. Bridge positions count the residues as written; N and C are the ends. Square brackets hold non-standard residues; d marks the D form. Peptide text beside a SMILES is read from it. X1 = CCCCCCCCCCC[C@H](CC(=O)[*:1])O[*:2]

System: production of apolipoprotein E in Hep G2 cells
Test: Promoting activity on the production of apolipoprotein E in Hep G2 cells (enzyme immunoassay of cultured broth)
Assay type: cell-based, human
Conditions: for Relative amount of apolipoprotein E (%): 7 hours cultivation, methanol control defined as 100

Compound: CCCCCCCCCCC[C@@H]1CC(=O)N[C@@H](CCC(N)=O)C(=O)N[C@H]2CSSC[C@H](NC(=O)[C@@H](CC(C)C)NC(=O)[C@H](CC(=O)O)NC(=O)[C@H](C(C)C)NC(=O)[C@@H](CC(C)C)NC2=O)C(=O)O1 [Compound 1] (QC[dL]VD[dL]C; disulfide 2-7; linker N-C via X1)
- Relative amount of apolipoprotein E (%) (Conc. 1 μM): 196%
- Relative amount of apolipoprotein E (%) (Conc. 5 μM): 230%
- promoting activity of the production of apolipoprotein E (in words) (at 1 or 5 μM): potent promoting activity
